Experimental data: PubChem BioAssay AID1508597 (Cure First, 2020)
The deposit covers about 2,100 reagents; below is a random part of them. 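Calls flag viability under 80% in either arm, not effects specific to rucaparib; the reference for percent is not stated.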 A number with no mark means an inactive call. The record does not give: the 100% reference.

Test: 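Survival screen with siRNA in ovarian cancer cells derived from patients, with or without rucaparib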 (primary screen)
System: human ovarian carcinoma lines grown from tumours: OCI-P5x (papillary serous) and OCI-C5x (clear cell)
Knock-down reagent: siRNA pool against human genes, 1.25 pmol siRNA per well
Timing: 72 h or 96 h, depending on the cell culture
Conditions: rucaparib 20 µM (about IC30) or vehicle, present until read-out
Detection: 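Luminescent ATP-based viability assay read 72 or 96 h after transfection, depending on culture, given as normalised percent viability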
Reading the numbers: viability, normalised: higher = more viable cells remaining
Active means: 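Active when normalised viability falls below 80 percent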
Calls: active = viability under 80%; inactive = viability 80% or more

For RMI1, rucaparib or vehicle Rucaparib, cell line OCI-C5x (clear cell), technical replicate 1 the deposit lists viability, normalised (%) = 67.3 (active).
With RMI1, rucaparib or vehicle Rucaparib, cell line OCI-C5x (clear cell), technical replicate 2, the values are viability, normalised (%) = 59.5 (active).
RMI1, rucaparib or vehicle Rucaparib, cell line OCI-C5x (clear cell), technical replicate 3 showed viability, normalised (%) = 63.8 (active).
RMI1, rucaparib or vehicle Rucaparib, cell line OCI-P5x (serous), technical replicate 1 showed viability, normalised (%) = 73.2 (active).
RMI1, rucaparib or vehicle Rucaparib, cell line OCI-P5x (serous), technical replicate 2 showed viability, normalised (%) = 118.
For RMI1, rucaparib or vehicle Rucaparib, cell line OCI-P5x (serous), technical replicate 3, the values are viability, normalised (%) = 89.3.
With RMI1, rucaparib or vehicle Vehicle, cell line OCI-C5x (clear cell), technical replicate 1, the entry reads viability, normalised (%) = 51 (active).
For RMI1, rucaparib or vehicle Vehicle, cell line OCI-C5x (clear cell), technical replicate 2, the values are viability, normalised (%) = 55.1 (active).
With RMI1, rucaparib or vehicle Vehicle, cell line OCI-C5x (clear cell), technical replicate 3, the entry reads viability, normalised (%) = 61.3 (active).
RMI1, rucaparib or vehicle Vehicle, cell line OCI-P5x (serous), technical replicate 1 showed viability, normalised (%) = 106.
RMI1, rucaparib or vehicle Vehicle, cell line OCI-P5x (serous), technical replicate 2 showed viability, normalised (%) = 86.4.
For RMI1, rucaparib or vehicle Vehicle, cell line OCI-P5x (serous), technical replicate 3 the deposit lists viability, normalised (%) = 92.5.
For NLK, rucaparib or vehicle Rucaparib, cell line OCI-C5x (clear cell), technical replicate 1 the deposit lists viability, normalised (%) = 64.7 (active).
With NLK, rucaparib or vehicle Rucaparib, cell line OCI-C5x (clear cell), technical replicate 2 the deposit lists viability, normalised (%) = 56.7 (active).
NLK, rucaparib or vehicle Rucaparib, cell line OCI-C5x (clear cell), technical replicate 3 scored viability, normalised (%) = 45.6 (active).
NLK, rucaparib or vehicle Rucaparib, cell line OCI-P5x (serous), technical replicate 1 gave viability, normalised (%) = 76.1 (active).
With NLK, rucaparib or vehicle Rucaparib, cell line OCI-P5x (serous), technical replicate 2, the values are viability, normalised (%) = 84.2.
NLK, rucaparib or vehicle Rucaparib, cell line OCI-P5x (serous), technical replicate 3 scored viability, normalised (%) = 88.2.
With NLK, rucaparib or vehicle Vehicle, cell line OCI-C5x (clear cell), technical replicate 1, the entry reads viability, normalised (%) = 71.4 (active).
NLK, rucaparib or vehicle Vehicle, cell line OCI-C5x (clear cell), technical replicate 2 showed viability, normalised (%) = 66.7 (active).
For NLK, rucaparib or vehicle Vehicle, cell line OCI-C5x (clear cell), technical replicate 3 the deposit lists viability, normalised (%) = 53.8 (active).
NLK, rucaparib or vehicle Vehicle, cell line OCI-P5x (serous), technical replicate 1 gave viability, normalised (%) = 96.5.
For NLK, rucaparib or vehicle Vehicle, cell line OCI-P5x (serous), technical replicate 2, the entry reads viability, normalised (%) = 83.2.
NLK, rucaparib or vehicle Vehicle, cell line OCI-P5x (serous), technical replicate 3 gave viability, normalised (%) = 82.
IGF1R, rucaparib or vehicle Rucaparib, cell line OCI-C5x (clear cell), technical replicate 1 gave viability, normalised (%) = 46.9 (active).
For IGF1R, rucaparib or vehicle Rucaparib, cell line OCI-C5x (clear cell), technical replicate 2, the values are viability, normalised (%) = 44.9 (active).
With IGF1R, rucaparib or vehicle Rucaparib, cell line OCI-C5x (clear cell), technical replicate 3, the entry reads viability, normalised (%) = 50.7 (active).
IGF1R, rucaparib or vehicle Rucaparib, cell line OCI-P5x (serous), technical replicate 1 showed viability, normalised (%) = 73.2 (active).
With IGF1R, rucaparib or vehicle Rucaparib, cell line OCI-P5x (serous), technical replicate 2, the values are viability, normalised (%) = 64.7 (active).
For IGF1R, rucaparib or vehicle Rucaparib, cell line OCI-P5x (serous), technical replicate 3 the deposit lists viability, normalised (%) = 68.3 (active).
IGF1R, rucaparib or vehicle Vehicle, cell line OCI-C5x (clear cell), technical replicate 1 scored viability, normalised (%) = 55.4 (active).
With IGF1R, rucaparib or vehicle Vehicle, cell line OCI-C5x (clear cell), technical replicate 2 the deposit lists viability, normalised (%) = 58.8 (active).
For IGF1R, rucaparib or vehicle Vehicle, cell line OCI-C5x (clear cell), technical replicate 3, the values are viability, normalised (%) = 44.6 (active).
With IGF1R, rucaparib or vehicle Vehicle, cell line OCI-P5x (serous), technical replicate 1 the deposit lists viability, normalised (%) = 60.8 (active).
IGF1R, rucaparib or vehicle Vehicle, cell line OCI-P5x (serous), technical replicate 2 scored viability, normalised (%) = 71.2 (active).
For IGF1R, rucaparib or vehicle Vehicle, cell line OCI-P5x (serous), technical replicate 3, the entry reads viability, normalised (%) = 69.7 (active).

No new results follow: entries from further up.
RMI1, rucaparib or vehicle Rucaparib, cell line OCI-P5x (serous), technical replicate 1 → viability, normalised (%) = 73.2 (active)
RMI1, rucaparib or vehicle Rucaparib, cell line OCI-P5x (serous), technical replicate 2 → viability, normalised (%) = 118
RMI1, rucaparib or vehicle Rucaparib, cell line OCI-P5x (serous), technical replicate 3 → viability, normalised (%) = 89.3
